Here are results for 24 targets from the supplement of paper PMC10849652.

Sequences of proteins named here, by UniProt entry; tags and fusion partners are left off. A change or cut given only in a name is not applied to a line headed by its entry.
UniProt Q9UKU7: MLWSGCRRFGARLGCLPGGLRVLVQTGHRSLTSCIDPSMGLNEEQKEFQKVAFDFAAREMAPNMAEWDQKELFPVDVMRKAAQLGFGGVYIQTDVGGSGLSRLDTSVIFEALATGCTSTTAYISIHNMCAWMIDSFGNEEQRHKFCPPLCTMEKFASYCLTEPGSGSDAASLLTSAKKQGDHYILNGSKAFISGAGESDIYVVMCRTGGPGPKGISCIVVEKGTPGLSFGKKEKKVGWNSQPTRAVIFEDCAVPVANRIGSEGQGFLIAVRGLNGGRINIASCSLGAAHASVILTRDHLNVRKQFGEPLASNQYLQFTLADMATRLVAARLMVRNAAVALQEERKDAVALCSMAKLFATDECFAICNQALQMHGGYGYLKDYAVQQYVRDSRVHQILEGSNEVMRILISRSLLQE
UniProt Q4L235: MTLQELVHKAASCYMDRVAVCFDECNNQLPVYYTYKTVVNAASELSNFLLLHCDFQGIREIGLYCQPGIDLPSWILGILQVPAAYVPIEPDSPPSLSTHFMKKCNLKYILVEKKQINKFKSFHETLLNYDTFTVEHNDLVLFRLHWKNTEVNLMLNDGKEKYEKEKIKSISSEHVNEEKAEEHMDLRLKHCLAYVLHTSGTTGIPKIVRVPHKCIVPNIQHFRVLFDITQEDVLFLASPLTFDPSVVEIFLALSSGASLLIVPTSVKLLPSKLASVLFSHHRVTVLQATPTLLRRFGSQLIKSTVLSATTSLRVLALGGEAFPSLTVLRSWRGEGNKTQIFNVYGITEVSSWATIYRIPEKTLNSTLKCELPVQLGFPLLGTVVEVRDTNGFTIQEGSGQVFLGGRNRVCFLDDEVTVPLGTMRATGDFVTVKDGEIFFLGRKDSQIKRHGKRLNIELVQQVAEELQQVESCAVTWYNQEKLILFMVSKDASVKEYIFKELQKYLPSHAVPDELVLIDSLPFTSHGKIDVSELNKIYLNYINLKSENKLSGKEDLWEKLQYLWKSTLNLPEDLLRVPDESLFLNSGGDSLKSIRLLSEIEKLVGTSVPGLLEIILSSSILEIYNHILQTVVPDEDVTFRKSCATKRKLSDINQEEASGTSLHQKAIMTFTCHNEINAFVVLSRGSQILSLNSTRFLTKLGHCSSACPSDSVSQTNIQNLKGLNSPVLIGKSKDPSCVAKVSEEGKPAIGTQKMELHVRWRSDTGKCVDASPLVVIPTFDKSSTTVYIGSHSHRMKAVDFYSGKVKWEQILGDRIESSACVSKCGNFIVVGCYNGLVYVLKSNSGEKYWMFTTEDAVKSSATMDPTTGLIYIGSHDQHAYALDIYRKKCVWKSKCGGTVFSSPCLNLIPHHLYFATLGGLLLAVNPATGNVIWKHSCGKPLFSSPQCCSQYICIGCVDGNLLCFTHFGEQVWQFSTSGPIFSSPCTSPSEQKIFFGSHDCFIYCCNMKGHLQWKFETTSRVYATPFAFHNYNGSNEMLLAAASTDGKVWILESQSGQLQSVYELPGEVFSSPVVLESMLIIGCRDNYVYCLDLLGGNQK
UniProt Q9NX38: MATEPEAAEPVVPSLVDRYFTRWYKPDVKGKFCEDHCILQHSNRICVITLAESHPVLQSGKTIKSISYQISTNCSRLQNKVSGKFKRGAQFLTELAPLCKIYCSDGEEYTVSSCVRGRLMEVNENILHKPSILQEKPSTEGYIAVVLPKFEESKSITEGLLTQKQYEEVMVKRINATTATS
UniProt O95870: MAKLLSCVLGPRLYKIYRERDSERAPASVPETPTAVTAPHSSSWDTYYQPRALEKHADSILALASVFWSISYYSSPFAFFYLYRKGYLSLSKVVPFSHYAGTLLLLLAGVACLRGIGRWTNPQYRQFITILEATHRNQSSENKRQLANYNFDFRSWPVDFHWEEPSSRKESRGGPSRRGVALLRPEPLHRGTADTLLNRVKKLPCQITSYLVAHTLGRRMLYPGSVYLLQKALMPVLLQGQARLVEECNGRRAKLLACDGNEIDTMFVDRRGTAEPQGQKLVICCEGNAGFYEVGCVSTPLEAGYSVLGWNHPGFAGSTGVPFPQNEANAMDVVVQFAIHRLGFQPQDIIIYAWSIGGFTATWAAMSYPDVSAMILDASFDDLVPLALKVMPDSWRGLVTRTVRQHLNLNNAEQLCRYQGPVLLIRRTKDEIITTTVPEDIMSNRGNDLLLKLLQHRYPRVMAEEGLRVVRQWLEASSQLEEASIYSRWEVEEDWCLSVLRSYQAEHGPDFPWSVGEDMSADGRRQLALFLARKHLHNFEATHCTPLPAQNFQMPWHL
UniProt Q9P1F3: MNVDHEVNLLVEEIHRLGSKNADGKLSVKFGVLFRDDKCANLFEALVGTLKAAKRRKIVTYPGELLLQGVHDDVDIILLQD
UniProt Q9NRK6: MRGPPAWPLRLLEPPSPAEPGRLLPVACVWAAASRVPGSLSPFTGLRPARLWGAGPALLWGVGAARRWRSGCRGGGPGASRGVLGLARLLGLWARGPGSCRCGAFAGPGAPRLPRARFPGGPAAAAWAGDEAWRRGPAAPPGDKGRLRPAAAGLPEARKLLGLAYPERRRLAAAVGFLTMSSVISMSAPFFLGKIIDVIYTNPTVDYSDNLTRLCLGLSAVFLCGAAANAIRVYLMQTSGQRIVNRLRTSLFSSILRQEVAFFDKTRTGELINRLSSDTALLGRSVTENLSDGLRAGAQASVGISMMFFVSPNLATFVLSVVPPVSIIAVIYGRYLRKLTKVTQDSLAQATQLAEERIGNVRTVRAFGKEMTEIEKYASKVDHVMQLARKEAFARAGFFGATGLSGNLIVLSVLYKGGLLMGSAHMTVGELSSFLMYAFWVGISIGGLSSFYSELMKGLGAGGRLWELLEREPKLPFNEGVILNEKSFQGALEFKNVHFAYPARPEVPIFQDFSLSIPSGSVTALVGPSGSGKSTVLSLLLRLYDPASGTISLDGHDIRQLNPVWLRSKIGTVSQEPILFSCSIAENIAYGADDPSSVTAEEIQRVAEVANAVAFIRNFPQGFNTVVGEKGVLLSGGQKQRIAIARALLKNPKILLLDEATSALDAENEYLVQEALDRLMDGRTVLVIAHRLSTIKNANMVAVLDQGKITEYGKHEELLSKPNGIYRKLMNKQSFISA
UniProt Q13685: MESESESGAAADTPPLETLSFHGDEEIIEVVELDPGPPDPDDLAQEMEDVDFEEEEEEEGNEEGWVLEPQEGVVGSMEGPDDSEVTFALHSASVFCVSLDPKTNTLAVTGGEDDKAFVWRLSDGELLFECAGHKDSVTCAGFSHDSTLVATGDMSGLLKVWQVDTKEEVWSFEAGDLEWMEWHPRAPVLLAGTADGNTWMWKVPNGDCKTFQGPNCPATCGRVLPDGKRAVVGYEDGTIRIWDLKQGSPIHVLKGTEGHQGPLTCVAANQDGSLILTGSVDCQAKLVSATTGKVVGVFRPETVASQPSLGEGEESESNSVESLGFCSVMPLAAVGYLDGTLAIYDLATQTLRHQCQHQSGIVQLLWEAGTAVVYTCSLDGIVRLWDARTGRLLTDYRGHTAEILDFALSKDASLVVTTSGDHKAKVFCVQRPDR
UniProt Q6UWZ7: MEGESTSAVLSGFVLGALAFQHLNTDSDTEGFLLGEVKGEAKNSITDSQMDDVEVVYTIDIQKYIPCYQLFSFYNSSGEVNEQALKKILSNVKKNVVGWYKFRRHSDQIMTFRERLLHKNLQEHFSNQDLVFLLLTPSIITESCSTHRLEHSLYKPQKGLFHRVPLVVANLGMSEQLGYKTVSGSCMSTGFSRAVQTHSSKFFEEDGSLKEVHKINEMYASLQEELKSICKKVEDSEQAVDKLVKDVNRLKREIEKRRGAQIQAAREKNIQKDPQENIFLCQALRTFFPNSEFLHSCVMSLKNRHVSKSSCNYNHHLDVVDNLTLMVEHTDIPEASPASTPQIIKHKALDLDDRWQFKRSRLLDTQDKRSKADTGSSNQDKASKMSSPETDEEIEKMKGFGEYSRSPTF
UniProt Q9NY61: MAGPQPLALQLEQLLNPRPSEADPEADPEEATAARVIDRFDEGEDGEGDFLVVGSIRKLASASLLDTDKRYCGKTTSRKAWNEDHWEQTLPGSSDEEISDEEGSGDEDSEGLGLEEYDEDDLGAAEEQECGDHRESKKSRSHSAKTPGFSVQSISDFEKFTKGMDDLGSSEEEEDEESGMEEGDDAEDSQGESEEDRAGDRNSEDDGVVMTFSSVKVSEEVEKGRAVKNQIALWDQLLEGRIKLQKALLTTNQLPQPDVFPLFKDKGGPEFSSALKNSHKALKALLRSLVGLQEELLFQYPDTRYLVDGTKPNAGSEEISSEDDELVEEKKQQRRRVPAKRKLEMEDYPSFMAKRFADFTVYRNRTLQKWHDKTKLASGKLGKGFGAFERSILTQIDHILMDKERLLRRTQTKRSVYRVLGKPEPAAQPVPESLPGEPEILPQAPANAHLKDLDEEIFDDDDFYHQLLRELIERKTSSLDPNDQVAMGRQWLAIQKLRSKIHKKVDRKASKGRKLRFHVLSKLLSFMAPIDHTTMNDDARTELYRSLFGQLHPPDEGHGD
UniProt Q9NRN7: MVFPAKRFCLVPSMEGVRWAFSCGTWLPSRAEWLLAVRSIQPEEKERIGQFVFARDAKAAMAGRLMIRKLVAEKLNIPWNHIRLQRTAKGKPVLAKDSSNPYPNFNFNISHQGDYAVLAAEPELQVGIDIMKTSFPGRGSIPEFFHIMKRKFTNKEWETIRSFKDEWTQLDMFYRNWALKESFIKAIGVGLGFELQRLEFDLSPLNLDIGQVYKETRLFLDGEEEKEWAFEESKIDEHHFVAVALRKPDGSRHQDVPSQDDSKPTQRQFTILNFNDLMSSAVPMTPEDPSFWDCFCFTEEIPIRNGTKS
UniProt Q99758: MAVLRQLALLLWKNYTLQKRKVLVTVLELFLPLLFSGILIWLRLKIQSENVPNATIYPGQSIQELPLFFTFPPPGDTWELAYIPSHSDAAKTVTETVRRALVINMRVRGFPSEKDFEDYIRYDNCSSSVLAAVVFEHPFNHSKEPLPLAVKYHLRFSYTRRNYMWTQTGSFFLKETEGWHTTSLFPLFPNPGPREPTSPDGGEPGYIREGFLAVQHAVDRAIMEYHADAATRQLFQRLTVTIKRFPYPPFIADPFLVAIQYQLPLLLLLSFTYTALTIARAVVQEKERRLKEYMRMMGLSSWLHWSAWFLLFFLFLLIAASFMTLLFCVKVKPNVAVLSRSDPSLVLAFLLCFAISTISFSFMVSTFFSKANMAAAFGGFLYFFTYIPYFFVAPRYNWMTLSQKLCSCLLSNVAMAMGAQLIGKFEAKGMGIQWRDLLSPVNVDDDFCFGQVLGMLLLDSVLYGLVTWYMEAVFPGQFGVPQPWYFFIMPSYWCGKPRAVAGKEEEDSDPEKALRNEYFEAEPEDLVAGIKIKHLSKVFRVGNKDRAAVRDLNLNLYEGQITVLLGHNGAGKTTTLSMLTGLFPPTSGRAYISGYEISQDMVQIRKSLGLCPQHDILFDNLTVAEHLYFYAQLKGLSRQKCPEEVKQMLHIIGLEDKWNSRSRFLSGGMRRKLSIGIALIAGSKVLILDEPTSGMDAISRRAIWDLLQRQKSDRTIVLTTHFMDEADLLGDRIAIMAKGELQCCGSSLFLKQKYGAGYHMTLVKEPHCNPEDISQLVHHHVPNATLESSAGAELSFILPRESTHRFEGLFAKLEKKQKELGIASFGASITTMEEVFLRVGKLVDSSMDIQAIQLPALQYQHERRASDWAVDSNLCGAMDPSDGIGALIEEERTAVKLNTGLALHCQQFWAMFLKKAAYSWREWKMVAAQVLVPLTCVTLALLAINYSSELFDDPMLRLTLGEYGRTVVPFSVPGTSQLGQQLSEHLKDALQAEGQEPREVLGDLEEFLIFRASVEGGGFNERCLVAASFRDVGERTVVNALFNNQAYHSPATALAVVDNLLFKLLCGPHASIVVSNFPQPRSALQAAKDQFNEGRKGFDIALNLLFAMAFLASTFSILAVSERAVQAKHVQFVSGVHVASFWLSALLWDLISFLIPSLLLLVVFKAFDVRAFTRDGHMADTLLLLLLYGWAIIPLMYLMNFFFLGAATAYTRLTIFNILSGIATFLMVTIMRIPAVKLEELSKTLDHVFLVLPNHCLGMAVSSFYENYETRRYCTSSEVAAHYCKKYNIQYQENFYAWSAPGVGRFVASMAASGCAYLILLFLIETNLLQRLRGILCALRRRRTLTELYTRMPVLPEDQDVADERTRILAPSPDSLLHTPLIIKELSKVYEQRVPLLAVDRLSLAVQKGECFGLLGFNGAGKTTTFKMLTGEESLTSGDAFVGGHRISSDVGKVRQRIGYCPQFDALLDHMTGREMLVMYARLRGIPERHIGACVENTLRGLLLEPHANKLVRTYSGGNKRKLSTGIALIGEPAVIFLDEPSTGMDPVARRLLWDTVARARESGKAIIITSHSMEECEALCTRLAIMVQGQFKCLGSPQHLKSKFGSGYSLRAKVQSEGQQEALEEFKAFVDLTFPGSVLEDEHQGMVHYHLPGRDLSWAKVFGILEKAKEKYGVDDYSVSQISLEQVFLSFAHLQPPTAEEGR

The list shows a part of the results.

Compound in the experiment: C1=CC=C(C=C1)[C@H](COC2=CC3=C(C=C2)NC(=O)N3)NC(=O)C4=CC=CN(C4=O)CC5=CC(=C(C=C5)F)F
In words: log2 fold change, soluble protein after heating vs DMSO (PISA); higher = thermal stabilisation; K562 lysate, 10 uM; active = over 0.2 and 3.5 SD of the protein, either way, in both replicates (recomputed). The gist of the method: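 K562 pellets were dounce-homogenised in PBS pH 7.4 containing 1 mM MgCl2, and the crude extract, at 1 mg/mL protein, was exposed to 10 μM compound for 30 min. Aliquots were heated for 3 min across 48°C-58°C, pooled, brought to 0.5% NP-40 at 4°C and spun at 21,000xg for 90 min, with the supernatant taken as soluble protein. TMTpro 16plex LC-MS/MS with equalised channel sums quantified that protein. Values are log-two fold changes in thermal stability relative to solvent controls, taken from duplicates.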
ACAD8 (UniProt Q9UKU7): the log2 fold change is inactive: 0.191. Then AASDH (UniProt Q4L235), with inactive: 0.05. Then AARS2 (UniProt Q5JTZ9), with inactive: 0.014. With ABITRAM (UniProt Q9NX38), the log2 fold change was inactive: 0.02.

Regarding AARSD1 (UniProt Q9BTE6), the log2 fold change was inactive: -0.004.

Turning to ABRAXAS2 (UniProt Q15018), the log2 fold change was inactive: 0.004. In the case of ACIN1 (UniProt E7EQT4) it was inactive: 0.04; in that of ABHD16A (UniProt O95870), inactive: -0.011; in that of ABRACL (UniProt Q9P1F3), inactive: 0.052. Then AACS (UniProt Q86V21), with inactive: -0.112. Then AARS (UniProt P49588), with inactive: -0.01; and ABCB10 (UniProt Q9NRK6), with inactive: 0.013.

With ABL2 (UniProt P42684), the log2 fold change is inactive: -0.026. For AAMP (UniProt Q13685), the log2 fold change was inactive: -0.025. In the case of ABRAXAS1 (UniProt Q6UWZ7) it was inactive: 0.096. In the case of AATF (UniProt Q9NY61) it was inactive: 0.05; in that of ACLY isoform 2 (UniProt P53396), inactive: 0.099; in that of ABCE1 (UniProt H0Y990), inactive: 0.01. Then ABTB2 (UniProt Q8N961), with inactive: -0.162. As for ACAP3 (UniProt Q96P50), the log2 fold change is inactive: 0.157. In the case of A0A494C071, A0A494C071 it was inactive: -0.13; in that of AASDHPPT (UniProt Q9NRN7), inactive: -0.007; in that of A2ML1 (UniProt A8K2U0), inactive: -0.237. For ABCA3 (UniProt Q99758), the log2 fold change was inactive: 0.112.
